Data on two substances can be found in publication PMC5007356.

Chains of the proteins cited; added tags and fusions are not shown. Lines headed by an entry give the natural chain unless they say otherwise; changes in a name come on top.
UniProt O18402: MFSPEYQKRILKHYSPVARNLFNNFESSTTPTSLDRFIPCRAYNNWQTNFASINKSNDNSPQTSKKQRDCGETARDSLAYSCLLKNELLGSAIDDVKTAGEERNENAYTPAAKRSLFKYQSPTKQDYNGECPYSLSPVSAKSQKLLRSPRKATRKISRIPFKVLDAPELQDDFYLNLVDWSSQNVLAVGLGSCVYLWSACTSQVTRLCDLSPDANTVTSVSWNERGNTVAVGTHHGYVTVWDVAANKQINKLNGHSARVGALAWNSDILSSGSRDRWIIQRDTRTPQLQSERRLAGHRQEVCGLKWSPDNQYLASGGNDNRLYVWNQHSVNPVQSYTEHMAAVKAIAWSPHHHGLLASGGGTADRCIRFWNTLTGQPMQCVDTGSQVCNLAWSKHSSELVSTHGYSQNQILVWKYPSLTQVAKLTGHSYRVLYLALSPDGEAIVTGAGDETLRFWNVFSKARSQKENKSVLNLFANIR
UniProt P23572: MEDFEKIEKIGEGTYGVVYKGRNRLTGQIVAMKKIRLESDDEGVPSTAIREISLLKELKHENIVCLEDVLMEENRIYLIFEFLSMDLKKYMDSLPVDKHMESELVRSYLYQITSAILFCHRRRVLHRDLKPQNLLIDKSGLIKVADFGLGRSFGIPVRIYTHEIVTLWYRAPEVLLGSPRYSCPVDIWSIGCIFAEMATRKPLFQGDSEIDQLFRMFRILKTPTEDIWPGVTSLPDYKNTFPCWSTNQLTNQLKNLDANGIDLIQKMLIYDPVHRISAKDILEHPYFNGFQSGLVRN
UniProt Q9VV79: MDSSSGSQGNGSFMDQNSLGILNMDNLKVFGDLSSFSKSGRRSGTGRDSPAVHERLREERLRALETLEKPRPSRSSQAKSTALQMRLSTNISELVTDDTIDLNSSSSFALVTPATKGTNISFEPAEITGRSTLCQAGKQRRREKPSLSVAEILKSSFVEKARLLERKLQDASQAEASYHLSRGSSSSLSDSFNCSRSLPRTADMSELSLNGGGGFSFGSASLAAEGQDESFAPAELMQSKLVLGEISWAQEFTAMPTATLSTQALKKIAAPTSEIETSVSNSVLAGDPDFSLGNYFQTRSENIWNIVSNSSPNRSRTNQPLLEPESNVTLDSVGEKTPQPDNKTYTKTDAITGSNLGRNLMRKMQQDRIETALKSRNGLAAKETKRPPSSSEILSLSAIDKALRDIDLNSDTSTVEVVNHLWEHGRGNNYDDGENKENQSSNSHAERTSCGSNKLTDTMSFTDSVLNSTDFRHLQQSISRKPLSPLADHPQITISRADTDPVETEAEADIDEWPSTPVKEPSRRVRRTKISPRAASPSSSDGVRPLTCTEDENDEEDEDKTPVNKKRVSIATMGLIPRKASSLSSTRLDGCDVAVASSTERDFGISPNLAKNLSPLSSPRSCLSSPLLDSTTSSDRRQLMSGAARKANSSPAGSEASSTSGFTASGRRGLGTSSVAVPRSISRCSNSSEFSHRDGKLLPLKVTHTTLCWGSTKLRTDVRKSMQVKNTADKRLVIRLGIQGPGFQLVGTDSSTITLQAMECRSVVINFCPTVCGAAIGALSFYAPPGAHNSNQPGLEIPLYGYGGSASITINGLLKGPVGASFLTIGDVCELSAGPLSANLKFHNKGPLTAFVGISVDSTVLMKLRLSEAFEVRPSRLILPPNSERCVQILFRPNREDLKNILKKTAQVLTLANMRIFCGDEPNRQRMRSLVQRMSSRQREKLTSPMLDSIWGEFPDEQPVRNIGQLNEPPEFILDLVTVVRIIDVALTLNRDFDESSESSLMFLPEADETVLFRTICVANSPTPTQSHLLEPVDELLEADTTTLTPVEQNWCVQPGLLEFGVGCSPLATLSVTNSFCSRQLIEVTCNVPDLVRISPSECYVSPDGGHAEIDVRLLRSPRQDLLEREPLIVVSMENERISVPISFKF

These are yes or no findings as the source states them, for the method shown. In cells and extracts the contact can be indirect. These calls come from enrichment with a bait or labelling near it, and not all partners need be listed.

The target in this experiment is Protein A-tagged Fzr (Drosophila melanogaster) (UniProt O18402). The experiment is described as follows: affinity purification with mass spectrometry; PrA-Fzr purified on rabbit IgG-conjugated Dynabeads from lysates of D. mel-2 cells or Drosophila embryos, 4 °C, 2 h; 50 mM K-HEPES pH 7.5, 100 mM AcOK, 100 mM NaCl, 50 mM KCl, 0.1% NP40; eluted with 1 M NH4OH; LC-MS/MS.

As to “Cdk1 (endogenous) (from UniProt P23572 1-297)”, the binding entry is given as “binds”.
On to Spd2 (endogenous) (from UniProt Q9VV79), for which the binding result is recorded as “binds”.
